Measured values reported in patent publication US9526757B2, “Peptides that inhibit the interaction between ASF1 and histones, and use thereof” (COMMISSARIAT A L'ENERGIE ATOMIQUE ET AUX ENERGIES …, priority 2011, dated 2016).
pKd: −log10 of the molar value. Not every detail of the peptide structures is certain; ends, links or a residue may be inferred. Some compounds share one wording; it may come from a single statement. Where no end group is shown, it is not given here.

Protein sequences, listed by entry. Tags and fused reporters are not part of them. Residues count along the entry.
UniProt Q9Y294, 1-156: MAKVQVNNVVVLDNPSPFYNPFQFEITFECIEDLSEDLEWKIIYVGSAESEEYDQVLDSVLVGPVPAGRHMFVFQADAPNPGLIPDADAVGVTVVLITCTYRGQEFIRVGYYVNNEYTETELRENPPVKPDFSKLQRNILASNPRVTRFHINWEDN

Target: T1, Asf1 1-156 (Homo sapiens, UniProt Q9Y294)
T1 construct: made in house
Test: Calorimetry (ITC) of the interaction of peptides with Asf1 1-156
Format: binding
Settings: for affinity for Asf1 compared with peptide i5: optimized sequences of i5
Method: FIG. 1: ITC curves of the interaction Asf1 1-156 (30 μM in A, 10 μM in B and C) with peptide i1 (A), i4 (B) and i5 (C). The peptide concentration used for this experiment is 0.5 mM for i1, and 0.16 mM for i4 and i5.
Human Asf1a and b proteins and the conserved N-terminal domain (1-156) of each of the isoforms were cloned into the vector peTM30. The unlabeled and ^15N and ^13C/^15N labeled recombinant proteins were purified according to the protocol of Mousson et al. (2004, Journal of Biomolecular NMR, 29(3): 413-414). The peptides were either produced by chemical synthesis ([…]), or cloned after gene synthesis ([…]) in the vector Gateway pDest 17 (Invitrogen), then purified according to the protocol of Mousson et al. (2005, Proc. Natl. Sci. USA, 102(17): p. 5975-5980).
All calorimetry experiments were carried out in 50 mM Tris buffer pH 7.4 at 5° C., unless otherwise indicated. Peptides were introduced in the syringe at a concentration of […] and Asf1 was added to the cuvette at a concentration of 30 μM or 10 μM. Calorimetry tests were also conducted at 25° C. or in 50 mM Tris buffer, 150 mM NaCl, pH 7.4 to obtain more detailed information on the characteristics of the interactions studied.

| Sequence | affinity for Asf1 compared with peptide i5 | pKd (ITC, 50 mM Tris buffer pH 7.4 at 5° C., Asf1 1-156) |
| --- | --- | --- |
| ASTERKWAELARRIRGAGGVTLDGFG [SEQ ID NO: 76] | at least as good as that of peptide i5 |  |
| ASTERKWAELARRIRGAGGATLNGFG [SEQ ID NO: 78] | at least as good as that of peptide i5 |  |
| LTAAEHAKRSTLTPKEAELARRIRGAGGVTLNGFG [SEQ ID NO: 53] |  | 7.22 |
| ASTEEKWARLARRIRGAGGVTLNGFG [SEQ ID NO: 75] | at least as good as that of peptide i5 |  |
